Our source for the binding values is paper doi:10.1101/2025.06.04.657913.

These are yes or no findings as the source states them, for the method shown. In cells and extracts the contact can be indirect. Some entries that bind do so weakly or less than the wild type. Tags and fused reporters may be left off the sequences shown.

One test addresses T1, Flag-Kv6.4 (mouse) (UniProt Q80XM3).
T1 sequence: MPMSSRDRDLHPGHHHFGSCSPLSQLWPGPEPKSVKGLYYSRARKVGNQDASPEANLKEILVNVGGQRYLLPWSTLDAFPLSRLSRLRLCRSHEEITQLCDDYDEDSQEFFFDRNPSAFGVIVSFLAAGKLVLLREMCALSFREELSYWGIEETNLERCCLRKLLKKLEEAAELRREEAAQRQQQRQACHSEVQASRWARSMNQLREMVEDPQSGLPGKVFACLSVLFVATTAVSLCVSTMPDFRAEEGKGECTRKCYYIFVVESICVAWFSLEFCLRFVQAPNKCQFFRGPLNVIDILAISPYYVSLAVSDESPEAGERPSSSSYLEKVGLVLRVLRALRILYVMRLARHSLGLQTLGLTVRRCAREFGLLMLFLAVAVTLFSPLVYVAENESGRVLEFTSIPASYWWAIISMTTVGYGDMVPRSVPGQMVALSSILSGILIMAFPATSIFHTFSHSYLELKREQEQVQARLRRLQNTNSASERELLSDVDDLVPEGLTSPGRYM
As to the kind of experiment: co-IP.

For the next test, the target named is T2, Kv2.1 (rat) (UniProt P15387).
T2 sequence: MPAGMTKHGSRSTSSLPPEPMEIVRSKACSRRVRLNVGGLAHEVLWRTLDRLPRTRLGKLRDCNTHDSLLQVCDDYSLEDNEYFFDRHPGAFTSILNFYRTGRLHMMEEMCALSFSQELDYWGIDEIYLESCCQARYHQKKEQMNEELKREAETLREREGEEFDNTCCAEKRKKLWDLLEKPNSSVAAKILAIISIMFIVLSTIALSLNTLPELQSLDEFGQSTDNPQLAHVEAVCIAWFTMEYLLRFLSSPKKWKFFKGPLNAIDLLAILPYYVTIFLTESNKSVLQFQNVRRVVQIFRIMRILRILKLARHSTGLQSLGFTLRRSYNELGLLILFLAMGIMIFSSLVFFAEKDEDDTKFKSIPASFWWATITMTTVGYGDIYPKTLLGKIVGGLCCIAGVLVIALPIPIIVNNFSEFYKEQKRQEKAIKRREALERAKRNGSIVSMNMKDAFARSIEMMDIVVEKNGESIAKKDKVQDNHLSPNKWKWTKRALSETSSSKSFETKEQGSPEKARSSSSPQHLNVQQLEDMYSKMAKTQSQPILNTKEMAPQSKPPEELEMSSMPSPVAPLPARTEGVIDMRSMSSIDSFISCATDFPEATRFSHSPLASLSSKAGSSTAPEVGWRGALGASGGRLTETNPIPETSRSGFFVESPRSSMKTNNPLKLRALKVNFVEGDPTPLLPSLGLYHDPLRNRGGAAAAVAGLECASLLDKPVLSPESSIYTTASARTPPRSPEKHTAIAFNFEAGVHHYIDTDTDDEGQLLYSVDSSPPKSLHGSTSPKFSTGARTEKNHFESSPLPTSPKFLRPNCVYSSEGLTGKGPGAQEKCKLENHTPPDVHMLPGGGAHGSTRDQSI
As to the kind of experiment: co-IP.

B1: GFP-Kv2.2 (protein, UniProt Q63099 1-907)
chain: MAEKAPPGLNRKTSRSTLSLPPEPVDIIRSKTCSRRVKINVGGLNHEVLWRTLDRLPRTRLGKLRDCNTHESLLEVCDDYNLNENEYFFDRHPGAFTSILNFYRTGKLHMMEEMCALSFGQELDYWGIDEIYLESCCQARYHQKKEQMNEELRREAETMRDGEGEEFDNTCCPEKRKKLWDLLEKPNSSVAAKILAIVSILFIVLSTIALSLNTLPELQENDEFGQPSDNRKLAHVEAVCIAWFTMEYLLRFLSSPNKWKFFKGPLNVIDLLAILPYYVTIFLTESNKSVLQFQNVRRVVQIFRIMRILRILKLARHSTGLQSLGFTLRRSYNELGLLILFLAMGIMIFSSLVFFAEKDEDATKFTSIPASFWWATITMTTVGYGDIYPKTLLGKIVGGLCCIAGVLVIALPIPIIVNNFSEFYKEQKRQEKAIKRREALERAKRNGSIVSMNLKDAFARSMELIDVAVEKAGESANIKDSVDDNHLSPSRWKWARKALSETSSNKSYENKYQEVSQKDSHEQLNNTSSSSPQHLSAQKLEMLYNEITKTQTHSHPNPDCQEQPERPSAYEEEIEMEEVVCPQEQLAVAQTEVIVDMKSTSSIDSFTSCATDFTETERSPLPPPSASHLQMKFPTDLPGMDEHQRVRAPPFLTLSRDKGPAAREAALDYAPIDITVNLDAGASHGPLQPDSASDSPKSSLKGSNPLKSRSLKVNFQENRGSAPQTPPSTARPLPVTTADFPLTTPQHMSTILLEESPPPGTETLPGADVSAHCQGPSKGLSPRVPKQKLFPFSSRERRSFTEIDTGEDEDFLDLQRPRPDKQADPSPNCLADKPGEARDPLREEGCVGSSSPQNTDHNCRQDIYQAVGEVKKDSSQEGYKMENHLFAPEIHSNPGDTGYCPTRETSM
In the case of B1, the binding result with Flag-Kv6.4 (mouse) is “binds”.

B2: GFP-Kv2.1 (protein, UniProt P15387 1-857)
chain: T2 sequence
On to B2, for which the binding entry with Flag-Kv6.4 (mouse) is reported as “binds”.

B3: Flag-Kv6.4 (protein, UniProt Q80XM3 1-506)
chain: T1 sequence
B3: in the test with Kv2.1 (rat), the binding result is reported as “binds”.

B4: Flag-tagged Kv9.1 (protein, UniProt O35173 1-497)
chain: MVSEFPGPGSRVPWRPRDEALRVNVGGVRRLLSARALARFPGTRLGRLQAAASEEQARRLCDDYDAAAHEFYFDRHPGFFLGLLHFYRTGHLHVLDELCVFAFGQEADYWGLGENALATCCRARYLERRVARPRAWDEDSDAPSSVDPCPDEISDVQRELARYGAARCGRLRRRLWLTMENPGYSLPSKLFSCVSIGVVLASIAAMCIHSLPEYQAREAAAAVAAVAAGRSAEEVRDDPVLRRLEYFCIAWFSFEVSSRLLLAPSTRNFFCHPLNLIDIVSVLPFYLTLLAGAALGDQRGASGEELGDLGKVVQVFRLMRIFRVLKLARHSTGLRSLGATLKHSYREVGILLLYLAVGVSVFSGVAYTAEEENEGFHTIPACWWWGTVSMTTVGYGDVVPETVGGKLAASGCILGGILVVALPITIIFNKFSHFYRRQKALEAAVRSSGQREFEDLLSSVDGVSDVSLETSRDTSQEGRSTDLETQAPREPAKSHSY
In the case of B4, in the test with Kv2.1 (rat), the binding entry was “binds”.

B5: Flag-tagged-Kv5.1 (protein, UniProt Q7TSH7 1-493)
chain: MDASAEQSLPEPGSQDSVAGEDIEIVVNVGGVRQVLYGDLLSQYPETRLAELINCLAGGYDTIFSLCDDYDPGKREFYFDRDPDAFKCVIEVYYFGEVHMKKGICPICFKNEMDFWKVDLKFLDDCCKSHLSEKREELEEIARRVQLILDDLGVDAAEGRWRRCQKCVWKFLEKPESSCPARVVAVLSFLLILVSSVVMCMGTIPELQVVDSEGNRVEHPTLENVETACIGWFTLEYLLRLFSSPNKLHFALSFMNIVDVLAILPFYVSLTLTHLGARMMELTNVQQAVQALRIMRIARIFKLARHSSGLQTLTYALKRSFKELGLLLMYLAVGIFVFSALGYTMEQSHPETLFKSIPQSFWWAIITMTTVGYGDIYPKTTLGKLNAAISFLCGVIAIALPIHPIINNFVRYYNKQRVLETAAKHELELMELNSSSAEGKPGGSRSDLDTLPPEPAAREGPSWGSRLKLSHSDTFIPLLTEEKHHRTRLQSCK
For the molecule B5, the binding entry with Kv2.1 (rat) is listed as “binds”.
